The assay in a line: qHTS Assay for Lipid Storage Modulators in Drosophila S3 Cells.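 On cell number change: cells counted by Cell Tracker Red CMTPX staining in the red channel.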 The following applies: BODIPY lipid droplet fluorescence, 18-24 h; for cell number change: measured here: cell count max response, cells fed with added oleic acid. The procedure, abridged:
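Drosophila S3 cells loaded with oleic acid (400 uM, as added) and compounds at several concentrations; lipid droplets imaged by 488-nm laser-scanning cytometry, 500–530 nm intensity and object ratio to cell channel. Percent activity normalized to 20 uM Triacsin C.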
For orientation: Quantitative high-throughput screening tests each substance at several concentrations.

Setting [1] is: measured here: lipid fluorescence (Fed channel) AC50, cells fed with added oleic acid.
Where [2] appears, read: measured here: cell number channel AC50, cells fed with added oleic acid.

SMILES strings stand for the structures. Some of the results follow. These are further read-outs of the screen, such as a control signal, another cell line or another target. No call is given for them. Compounds called inactive in the main read-out are mostly missing here. Words in brackets tell the shape of the fitted curve; partial curves, single points and poor fits give uncertain potencies.

Regarding `Cc1cc(NC(=O)CSCc2nc(-c3cccc(Cl)c3)oc2C)no1`, the cell number change stood at 15.6%. Further, the AC50 under setting [1] was 7.31 µM [rising, partial curve].
For the compound `Cc1ccc(C(=O)Nc2ncccc2O)cc1S(=O)(=O)N1CCCCC1`, the cell number change amounted to 125%. Also, the AC50 under setting [2] was 29.1 µM [rising, single point].
For `CCc1c(C)sc(NC(=S)Nc2cccnc2)c1C(=O)OC`, the cell number change is -30%. Also, the AC50 under setting [2] is 32.6 µM [falling, single point]. In addition, the AC50 under setting [1] is 29.1 µM [falling, single point].
With `CS(=O)(=O)N(CC(=O)NCc1ccco1)c1cccc([N+](=O)[O-])c1`, the cell number change is -4.46%. Moreover, the half-maximal activity concentration (AC50) under setting [1] is 6.51 µM [falling, single point].
For the compound `CCC(=O)Nc1cccc(NC(=S)NC(=O)c2ccc(Cl)cc2Cl)c1`, the cell number change is -1.71%. Moreover, under setting [1], the half-maximal activity concentration (AC50) is 1.16 µM [falling, single point].
Turning to `Brc1cccc(CNCC2CCCO2)c1` (configuration not stated), the cell number change is -2.05%.
As for `CCOc1ccc(NC(=O)CN(C)CC(=O)NC(C)c2ccccc2)cc1OCC` (configuration not stated), the cell number change was -44.2%. In addition, the AC50 under setting [2] was 2.91 µM [rising, single point].
Regarding `FC(F)(F)c1cc(-c2ccc(Cl)cc2)nc2ncnn12`, the cell number change was 112%. The concentration at half-maximal activity (AC50) under setting [2] was 6.51 µM [rising, partial curve, poor fit]. Also, under setting [1], the half-maximal activity concentration (AC50) is 20.6 µM [rising, partial curve].
Take `Cc1cc(S(=O)(=O)NCc2ccccc2)ccc1OCC(=O)N1CCOCC1`: the cell number change stood at 112%. Moreover, the AC50 under setting [1] is 0.146 µM [falling, full curve, poor fit].
Regarding `c1ccc(C(c2ccccc2)N2CCN(c3nc4ccccc4n4cnnc34)CC2)cc1`, the cell number change was -38.2%. Under setting [2], the AC50 is 14.6 µM [falling, partial curve, poor fit]. The AC50 under setting [1] is 6.51 µM [falling, partial curve].
Consider `O=c1oc2ccccc2c2c1SC(C(F)(F)F)C2` (configuration not stated), for which the cell number change stood at 19.3%. The AC50 under setting [1] is 1.3 µM [rising, full curve].
With `COc1ccc(/C=N/NC(=O)c2csc(-n3nc(C)cc3C(F)(F)F)n2)cc1`, the half-maximal activity concentration (AC50) by setting is: under setting [2], 2.06 µM [rising, partial curve]; under setting [1], 0.461 µM [rising, single point].
Regarding `Cn1ncc(Br)c1NC(=O)CSc1ccc(Cl)cc1`, the cell number change was determined as 3.67%. In addition, under setting [1], the AC50 was 29.1 µM [falling, single point].
Turning to `Cc1ccc(C(=O)Nc2ccccn2)cc1S(=O)(=O)N1CCOCC1`, the cell number change is 7.46%.
Consider `Cc1cc(C)c(S(=O)(=O)N2CCOC2CNC(=O)C(=O)NCCCN2CCCC2=O)c(C)c1` (configuration not stated), for which the cell number change was -9.49%. Also, the concentration at half-maximal activity (AC50) under setting [1] was 1.64 µM [falling, partial curve].
Consider `O=C(C1CCN(S(=O)(=O)c2ccccc2)CC1)N1CCc2ccccc21`, for which the cell number change was found to be 9.19%.
Same read-out and setting: the result for `Nc1c(C(=O)Nc2cccc(F)c2)nnn1-c1ccc2c(c1)OCCO2` reads 17.2%; that for `Nc1cccn2c(-c3ccc(Cl)c(Cl)c3)cnc12`, 64.7%.
Take `COCc1ccc(C(=O)NC2CC(C)(C)Cc3c2cnn3-c2ccc(C)cc2)o1` (configuration not stated): the AC50 under setting [1] was 6.51 µM [falling, single point].
Turning to `O=[N+]([O-])c1ccc(C2OCCO2)cc1CS(=O)(=O)c1ccccc1`, the cell number change is -40.6%. For the same compound, the AC50 under setting [2] was 7.31 µM [falling, partial curve]. Under setting [1], the half-maximal activity concentration (AC50) is 16.4 µM [falling, single point].
As for `COC(=O)c1ccc(/C=N/Nc2nc3ccccc3[nH]2)cc1`, the cell number change is 75.9%. Under setting [2], the AC50 is 10.3 µM [rising, partial curve].
Take `CCCCOC(=O)CCc1n[nH]c(=O)[nH]c1=O`: the cell number change was -21.7%. Under setting [1], the half-maximal activity concentration (AC50) was 0.731 µM [falling, full curve].
As for `COc1ccc(O)c(C(=O)c2cnc3nc4ccccc4n3c2)c1`, the cell number change is -20%. Further, the AC50 under setting [1] was 29.1 µM [falling, single point].
As for `CC1CCN(S(=O)(=O)c2cn(C)c(=O)n(C)c2=O)CC1`, the cell number change is -28.4%. The AC50 under setting [1] is 23.1 µM [falling, partial curve, poor fit].
For `COc1ccccc1-c1cn[nH]c1-c1ccc(OCc2ccccc2F)cc1O`, the cell number change was -69.2%. In addition, the AC50 under setting [2] is 20.6 µM [falling, single point]. Also, the concentration at half-maximal activity (AC50) under setting [1] is 29.1 µM [falling, single point].
As to `CCOC(=O)C1CCN(C(=O)C2CCN(S(=O)(=O)c3c(C)noc3C)CC2)CC1`, the cell number change was -7.36%.
For `O=C(Nc1ccccc1Cc1ccccc1)c1ccncc1`, the cell number change amounted to 14.1%. In addition, the concentration at half-maximal activity (AC50) under setting [1] was 29.1 µM [falling, single point].
Turning to `CCOc1ccc(OCc2ccc(C(=O)N(CC)CC)cc2)cc1`, the cell number change is -11.9%.
Consider `CCCSC1=C(C#N)C(c2cccs2)CC(=O)N1` (configuration not stated), for which the cell number change was -6.97%. In addition, under setting [2], the AC50 is 0.00651 µM [falling, full curve, poor fit].
Turning to `O=C(NCc1cccnc1)Nc1cccc(F)c1`, the cell number change came to 3.19%.
On the same count and under the same terms, the result for `Cc1csc(NC(=O)CSc2nnc(C)c(=O)n2N)n1` reads 4.92%.
On the same count and under the same terms, the result for `COc1ccc(C)cc1NC(=O)C1CCN(C(=O)c2ccco2)CC1` reads 23.7%; that for `NCCCCCc1cn(CC(=O)NCCCCCCCCCCC(=O)N2CCNCC2)nn1`, 4.15%.
Consider `CN1CCN(C(=O)CC2(CC(=O)O)CCCC2)CC1`, for which the cell number change is -10.6%.
`Cc1cccn2c(=O)nc(SCC(=O)NCc3ccccc3Cl)nc12`: the half-maximal activity concentration (AC50) under setting [1] is 1.3 µM [rising, partial curve].
Take `Cc1nc(Cl)c2c(n1)NC(=O)CO2`: the cell number change was found to be 17.5%. In addition, the AC50 under setting [1] was 0.184 µM [falling, full curve, poor fit].
On to `COc1ccc(NC(C)=O)cc1NC(C)C(=O)Nc1cc(C(F)(F)F)ccc1N1CCOCC1` (configuration not stated), for which the cell number change turned out to be 21.6%. Moreover, the AC50 under setting [1] is 1.84 µM [rising, full curve, poor fit].
With `N#CC1=C2SC=C(c3ccc(Br)cc3)N2CCCC1=O`, the cell number change is 38.8%. Moreover, under setting [2], the AC50 was 29.1 µM [rising, single point]. Moreover, the AC50 under setting [1] is 29.1 µM [rising, single point].
For the compound `NCCCn1c(C(=O)c2cc(Cl)c(N)c(Cl)c2)c2ccccc2[n+]1[O-]`, the cell number change was determined as 10.5%. The AC50 under setting [1] was 6.51 µM [falling, single point].
For `Cc1nc(NC(=O)c2ccc(-c3cc4ccccc4oc3=O)cc2)ccc1Br`, the cell number change worked out at 117%. For the same compound, the AC50 under setting [2] was 29.1 µM [rising, single point]. For the same compound, the half-maximal activity concentration (AC50) under setting [1] is 0.146 µM [rising, full curve, poor fit].
Consider `CCc1noc(C)c1C(=O)Nc1ncc(C)s1`, for which the concentration at half-maximal activity (AC50) under setting [1] was 0.82 µM [rising, single point].
In the case of `O=C(Nc1ccc2c(c1)OCO2)C1CCCCN1S(=O)(=O)c1ccccc1` (configuration not stated), the half-maximal activity concentration (AC50) reads like this: under setting [2], 0.0731 µM [rising, full curve, poor fit]; under setting [1], 0.00651 µM [rising, full curve].
With `O=C(COC(=O)CNC(=O)c1ccc(Cl)cc1Cl)NC1CCCCC1`, the cell number change worked out at 14.2%. Under setting [1], the AC50 was 23.1 µM [rising, partial curve].
Consider `CC(=O)c1cccc(NC(=O)[C@@H](NC(N)=O)C(C)C)c1`, for which the cell number change was -7.38%.
As for `CCC(C)(C)NCC(=O)Nc1ccc(OC(F)(F)F)cc1`, the cell number change was -46.7%. Moreover, the AC50 under setting [2] is 18.4 µM [falling, partial curve, poor fit].
Regarding `N#Cc1ccc(C(=O)OCC(=O)N2CCOCC2)cc1`, the cell number change was found to be 15.4%. Under setting [2], the AC50 was 0.00651 µM [rising, full curve, poor fit].
Regarding `Cc1ccc(C)n1NC(=O)c1cccc(Cl)c1`, the half-maximal activity concentration (AC50) under setting [1] is 0.58 µM [falling, single point].
Turning to `Cc1c(CC(=O)NCCCC(=O)O)c(=O)oc2cc3c(cc12)CCC(C)(C)O3`, the cell number change is -14.8%.
On to `COC(=O)c1c(NC(=O)COC(=O)CC(NC(C)=O)c2ccccc2)sc(C)c1C` (configuration not stated), for which the cell number change was determined as 26.6%. Further, the AC50 under setting [2] was 2.06 µM [rising, full curve, poor fit].
As for `CC1=C([N+](=O)[O-])C(c2ccc3c(c2)OCO3)N(C)C(=O)N1C` (configuration not stated), the cell number change came out at 23.9%. Also, the AC50 under setting [2] is 0.82 µM [rising, full curve, poor fit].
In the case of `O=C(O)CNC(=O)c1ccccc1`, the cell number change was -38.9%. The AC50 under setting [2] is 0.058 µM [falling, full curve]. Also, the concentration at half-maximal activity (AC50) under setting [1] is 23.1 µM [falling, single point].
With `COc1cccc2[nH]c(C(=O)NCCc3ccccc3)cc12`, the cell number change turned out to be 22%.
In the case of `COCCCn1c(=O)c2sccc2n2c(CCCC(=O)NCc3ccccc3OC)nnc12`, the cell number change is 18.7%. Besides, under setting [1], the half-maximal activity concentration (AC50) was 6.51 µM [falling, single point].
On to `Cc1sc(-c2ccccn2)nc1OC(=O)c1ccc(Cl)c(Cl)c1`, for which the cell number change amounted to 0.62%. Further, the AC50 under setting [1] is 0.146 µM [falling, full curve].
`CC(=O)C1=C(O)C(=O)N(c2ccc(C(=O)O)cc2)C1c1ccccc1` (configuration not stated): the cell number change was -6.87%.
With `O=C(NCCCN1CCCC1=O)Nc1ccc(Cl)cc1Cl`, the cell number change was found to be 26.1%. In addition, the AC50 under setting [1] was 4.47 µM [rising, partial curve, poor fit].
`COc1ccccc1N1CCN(CCCCCCOc2ccc(F)cc2)CC1`: the cell number change is -30.8%. Also, the AC50 under setting [2] is 29.1 µM [falling, single point].
On to `C=CCn1c(Cc2cccs2)nnc1SC/C=C/c1ccccc1`, for which the cell number change came out at 34.7%. Besides, the half-maximal activity concentration (AC50) under setting [2] is 0.13 µM [rising, full curve, poor fit].
Regarding `Cc1[nH]nc2c1C(Cc1ccccc1)C(C#N)=C(N)O2` (configuration not stated), the cell number change was determined as 2.52%. Further, under setting [1], the concentration at half-maximal activity (AC50) is 0.58 µM [rising, single point].
On to `Cc1cc(Cl)c(S(=O)(=O)Nc2ccon2)cc1OCC(=O)NC1CCCCC1`, for which the cell number change was -33.3%. The concentration at half-maximal activity (AC50) under setting [2] was 32.6 µM [falling, single point]. Besides, the concentration at half-maximal activity (AC50) under setting [1] is 2.06 µM [falling, partial curve].
With `COc1cccc(CN2C(=O)c3cccc(N)c3C2=O)c1`, the cell number change turned out to be 35.6%. Further, the AC50 under setting [2] is 10.3 µM [rising, partial curve].
As to `Cc1ccccc1C(=O)c1cccn1CC(=O)NCCCN1CCCCC1`, the cell number change amounted to 46.9%. For the same compound, the concentration at half-maximal activity (AC50) under setting [1] is 29.1 µM [rising, single point].
For the compound `CC(C)(C)OC(=O)N1CCC(C(=O)N[C@@H](Cc2ccccc2)C(=O)O)(c2ccccc2)CC1`, the cell number change is -19.4%. Besides, the half-maximal activity concentration (AC50) under setting [1] is 36.6 µM [falling, partial curve, poor fit].
Regarding `NS(=O)(=O)c1cccnc1Nc1cccc(C(F)(F)F)c1`, the AC50 was 1.3 µM [rising, full curve, poor fit] under setting [2] and 0.164 µM [rising, full curve, poor fit] under setting [1].

The AC50 is the concentration giving half of the maximal activity seen.
